The data set concerns the target T1, QsdR (His-tagged) (UniProt A0A0C2W9F0).
T1 sequence (looked up): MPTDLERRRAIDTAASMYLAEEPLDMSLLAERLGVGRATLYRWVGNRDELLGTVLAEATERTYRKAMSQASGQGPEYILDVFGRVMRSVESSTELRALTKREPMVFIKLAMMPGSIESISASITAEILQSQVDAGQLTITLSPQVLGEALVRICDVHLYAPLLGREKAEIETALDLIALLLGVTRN
The data set is described as follows: EMSA. The following applies: LightShift Chemiluminescent EMSA Kit buffer (composition, salt, pH not stated), QsdR in Qiagen elution buffer with 50% glycerol, 20 min at room temperature, recombinant protein, residues 1-186, protein details: His (pET19, Ni-NTA), label: biotin (biotinylated primers), probe letters rebuilt from the primers and the genome. For orientation: Mobility shift assays separate free from complexed probe on a gel.

For at least one entry, the source does not settle the construct or the ends of the probe. The comparison behind a weaker result is the experiment's own reference, which may not be listed here. Protein sequences can lack the tags named with them. At least one verdict was read from the data and is not stated in words by the source.

On to “GGTAGGCATCGGGACATTCTCTCCGGTTGTCCGGTACTGCACAATTTCGGCGGTCGAACAGAGGTGGGCTTCGGGTGGCTCGAGCCTATTGACGAACCAAGCGACGTGAGACACACTAGCTCATTGTCTCATGTTAGTGATGGCGATCACAGTCAGGGGTTCGATCGATGAG (double strand) [qsdR-qsdA intergenic DNA fragment]”, for which the binding result (gamma-caprolactone (GCL), ligand/QsdR ratio 0.1-100, free DNA rises with GCL) is given as “binds more weakly”; the binding result (homoserine lactone (HSL), ligand/QsdR ratio 0.1-100) is given as “binds more weakly”; the binding result (no ligand, 3 ug QsdR, 0.4 ng DNA) is given as “binds”.
